Test results as given in paper PMC6479349, “Derivatives of 3-Aminopyrazine-2-carboxamides: Synthesis, Antimicrobial Evaluation, and in Vitro Cytotoxicity” (Molecules, 2019).
Values after ≈ are worked out from the molar mass of the structure shown.

Columns and labels:
[1] = test system: Aspergillus fumigatus ATCC 204305; experiment: Antifungal microdilution broth MIC; conditions: ATCC204305, 48 h, read-out: MIC Aspergillus fumigatus (standards)
[2] = test system: Candida albicans CCM 8320; experiment: Antifungal microdilution broth MIC; conditions: CCM8320, 48 h, read-out: MIC Candida albicans (standards)

SMILES: C[C@@H]1[C@H](O)[C@@H](C)/C=C/C=C/C=C/C=C/C=C/C=C/C=C/[C@H](O[C@@H]2O[C@H](C)[C@@H](O)[C@H](N)[C@@H]2O)C[C@@H]2O[C@](O)(C[C@@H](O)C[C@@H](O)[C@H](O)CC[C@@H](O)C[C@@H](O)CC(=O)O[C@H]1C)C[C@H](O)[C@H]2C(=O)O [amphotericin B]
- MIC [1]: 1 mg/L (≈ 1.08 µM)
- MIC [2]: 0.5 mg/L (≈ 0.541 µM)
